The target in test [1] is T1, Flag-tagged TBK1 (TANK-binding kinase 1) (UniProt Q9UHD2).
T1 sequence: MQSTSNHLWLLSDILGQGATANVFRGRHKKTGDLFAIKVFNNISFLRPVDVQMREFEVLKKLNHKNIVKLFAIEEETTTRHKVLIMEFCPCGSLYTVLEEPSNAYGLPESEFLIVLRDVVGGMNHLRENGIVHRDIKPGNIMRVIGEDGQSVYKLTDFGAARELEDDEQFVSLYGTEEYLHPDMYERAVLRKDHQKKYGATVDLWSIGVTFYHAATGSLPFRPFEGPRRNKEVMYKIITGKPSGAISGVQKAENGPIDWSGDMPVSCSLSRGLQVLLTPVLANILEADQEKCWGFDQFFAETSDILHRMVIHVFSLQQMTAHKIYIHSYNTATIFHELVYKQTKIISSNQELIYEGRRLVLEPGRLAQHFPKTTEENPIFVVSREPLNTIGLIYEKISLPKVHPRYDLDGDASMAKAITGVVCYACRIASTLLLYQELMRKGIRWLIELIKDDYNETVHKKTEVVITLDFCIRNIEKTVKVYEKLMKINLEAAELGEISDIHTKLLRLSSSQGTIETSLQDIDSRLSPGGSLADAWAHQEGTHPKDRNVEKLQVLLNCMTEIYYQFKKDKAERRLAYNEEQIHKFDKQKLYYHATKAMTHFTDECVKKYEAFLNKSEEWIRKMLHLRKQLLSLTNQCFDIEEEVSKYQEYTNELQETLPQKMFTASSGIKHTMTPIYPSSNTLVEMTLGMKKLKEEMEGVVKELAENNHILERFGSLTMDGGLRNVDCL
The experiment in a line: co-IP.

Test [2] deals with T2, TBK1 (TANK-binding kinase 1), endogenous (human (endogenous in HT1080)) (UniProt Q9UHD2).
T2 sequence: T1 sequence
The experiment in a line: co-IP.

These are yes or no findings as the source states them, for the method shown. In cells and extracts the contact can be indirect. Some entries that bind do so weakly or less than the wild type. For some assays here: Sequences can lack the tags named with a protein.

This passage reports binding results from paper doi:10.1101/2022.10.11.511671.

B1: HA-tagged IKKε (enzyme, UniProt Q14164 1-716)
chain: MQSTANYLWHTDDLLGQGATASVYKARNKKSGELVAVKVFNTTSYLRPREVQVREFEVLRKLNHQNIVKLFAVEETGGSRQKVLVMEYCSSGSLLSVLESPENAFGLPEDEFLVVLRCVVAGMNHLRENGIVHRDIKPGNIMRLVGEEGQSIYKLTDFGAARELDDDEKFVSVYGTEEYLHPDMYERAVLRKPQQKAFGVTVDLWSIGVTLYHAATGSLPFIPFGGPRRNKEIMYRITTEKPAGAIAGAQRRENGPLEWSYTLPITCQLSLGLQSQLVPILANILEVEQAKCWGFDQFFAETSDILQRVVVHVFSLSQAVLHHIYIHAHNTIAIFQEAVHKQTSVAPRHQEYLFEGHLCVLEPSVSAQHIAHTTASSPLTLFSTAIPKGLAFRDPALDVPKFVPKVDLQADYNTAKGVLGAGYQALRLARALLDGQELMFRGLHWVMEVLQATCRRTLEVARTSLLYLSSSLGTERFSSVAGTPEIQELKAAAELRSRLRTLAEVLSRCSQNITETQESLSSLNRELVKSRDQVHEDRSIQQIQCCLDKMNFIYKQFKKSRMRPGLGYNEEQIHKLDKVNFSHLAKRLLQVFQEECVQKYQASLVTHGKRMRVVHETRNHLRLVGCSVAACNTEAQGVQESLSKLLEELSHQLLQDRAKGAQASPPPIAPYPSPTRKDLLLHMQELCEGMKLLASDLLDNNRIIERLNRVPAPPDV
In the case of B1, the binding entry in test [1] is given as “binds”.

B2: IKKε, endogenous (enzyme, UniProt Q14164 1-716)
chain: B1 chain
As to B2, the binding entry in test [2] is “binds”.
